Results deposited as PubChem BioAssay AID504744 (Drosophila RNAi Screening Center, 2011).
Aim: 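Find genes whose loss alters insulin-driven dAkt phosphorylation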 (primary screen). System: Drosophila Kc167 cells. Knock-down reagent: long dsRNA against Drosophila genes, 250 ng dsRNA per well of a 384-well plate. Timing: 3 days of knock-down, then overnight serum-free starvation before stimulation. Treatment: bovine insulin at 387 nM for 10 minutes after 12 h without serum. Measurement: 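Per-well phospho-dAkt level from an in-cell fluorescent antibody stain, divided by a DNA-dye signal; log2 residuals turned into z-scores that take cell number into account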. Hit rule: 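Hit in the insulin screen when the two-replicate mean z-score is more extreme than plus or minus 2.5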.
The screen tested about 23,000 reagents; below is an unselected part of those that have a named target and a result. In the full data, 98 (0.43%) got an active call. 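Only hit calls are given; the phospho-dAkt signals, z-scores and hit direction were not deposited.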 A plus sign joins genes that one reagent is predicted to hit. Reagent sequences are not shown.

no.	Gene	dsRNA	activity call
1	l(2)dtl	DRSC04697	inactive
2	trh	DRSC08355	inactive
3	trh	DRSC08739	inactive
4	sds22	DRSC17052	inactive
5	CG17129	DRSC08508	inactive
6	CG14111	DRSC10114	inactive
7	Pgant35A	DRSC03557	inactive
8	CG33704	DRSC03838	inactive
9	Spn27A	DRSC03608	inactive
10	Cep290	DRSC08359	inactive
11	PAPLA1	DRSC03095	inactive
12	PAPLA1	DRSC03096	inactive
13	CG6052	DRSC10574	inactive
14	CG11841	DRSC14399	inactive
15	c(3)G	DRSC15245	inactive
16	CG7888	DRSC10926	inactive
17	CG3566	DRSC18311	inactive
18	CG13032	DRSC09912	inactive
19	Idua	DRSC02941	inactive
20	Sfmbt	DRSC02552	inactive
21	knon	DRSC07049	inactive
22	Rai1	DRSC20157	inactive
23	CG31741	DRSC02887	inactive
24	l(2)05287	DRSC02151	inactive
25	l(2)05287	DRSC02152	inactive
26	CG7634	DRSC11843	inactive
27	kis	DRSC00521	inactive
28	kis	DRSC00625	inactive
29	kis	DRSC00823	inactive
30	Ccz1	DRSC08439	inactive
31	rho-6	DRSC02588	inactive
32	DptA	DRSC07404	inactive
33	Spt6	DRSC18836	inactive
34	CG43066	DRSC06927	inactive
35	CG9147	DRSC03147	inactive
36	rush	DRSC18568	inactive
37	ca	DRSC15305	inactive
38	ca	DRSC15306	inactive
39	ca	DRSC16314	inactive
40	CG31142	DRSC13647	inactive
41	CG10433	DRSC04068	inactive
42	QC	DRSC09736	inactive
43	Alg11	DRSC11647	inactive
44	CG3348	DRSC15480	inactive
45	CG9663	DRSC00724	inactive
46	Blos2	DRSC10147	inactive
47	mgl	DRSC17800	inactive
48	mgl	DRSC17823	inactive
49	mgl	DRSC17859	inactive
50	mgl	DRSC18004	inactive
51	Jarid2	DRSC10372	inactive
52	CG10038	DRSC14178	inactive
53	Usp47	DRSC11313	inactive
54	scf	DRSC08735	inactive
55	Cdk8	DRSC11113	inactive
56	Sik2	DRSC18522	inactive
57	p38b	DRSC03586	inactive
58	CG3597	DRSC00617	inactive
59	Cog4	DRSC03057	inactive
60	CG14282	DRSC14763	inactive
61	CG3528	DRSC00611	inactive
62	c12.1	DRSC18750	inactive
63	CG11345	DRSC08176	inactive
64	Ir94e	DRSC15229	inactive
65	CG7785	DRSC16311	inactive
66	CG15014	DRSC08468	inactive
67	Sox102F	DRSC17204	inactive
68	Lip4	DRSC02930	inactive
69	mrn	DRSC10913	inactive
70	Sur	DRSC03447	inactive
71	UbcE2M	DRSC10828	inactive
72	CG17376	DRSC21717	inactive
73	Polr2I	DRSC16832	inactive
74	CG42324	DRSC08431	inactive
75	CG42324	DRSC08432	inactive
76	CG4161	DRSC01930	inactive
77	Ser6	DRSC20574	inactive
78	DIP-beta	DRSC20461	inactive
79	DIP-beta	DRSC20489	inactive
80	DIP-beta	DRSC20490	inactive
81	DIP-beta	DRSC20505	inactive
82	CG8089	DRSC07074	inactive
83	Kots	DRSC16581	inactive
84	CG31915	DRSC03000	inactive
85	Cpr65Au	DRSC22738	inactive
86	Rep	DRSC07526	inactive
87	sxe2	DRSC15692	inactive
88	Moe	DRSC18684	inactive
89	Npc2d	DRSC14551	inactive
90	ect	DRSC10675	inactive
91	ect	DRSC11343	inactive
92	ect	DRSC22357	inactive

Part of the list above in another layout.
Gene	dsRNA	activity call
ca	DRSC16314	inactive
CG31142	DRSC13647	inactive
CG10433	DRSC04068	inactive
QC	DRSC09736	inactive
Alg11	DRSC11647	inactive
CG3348	DRSC15480	inactive
CG9663	DRSC00724	inactive
Blos2	DRSC10147	inactive
mgl	DRSC17800	inactive
mgl	DRSC17823	inactive
mgl	DRSC17859	inactive
mgl	DRSC18004	inactive
Jarid2	DRSC10372	inactive
CG10038	DRSC14178	inactive
Usp47	DRSC11313	inactive
scf	DRSC08735	inactive
Cdk8	DRSC11113	inactive
Sik2	DRSC18522	inactive
p38b	DRSC03586	inactive
CG3597	DRSC00617	inactive
Cog4	DRSC03057	inactive
CG14282	DRSC14763	inactive
CG3528	DRSC00611	inactive
c12.1	DRSC18750	inactive
CG11345	DRSC08176	inactive
Ir94e	DRSC15229	inactive

Additional results follow:
no.	Gene	dsRNA	activity call
93	Swim	DRSC04334	inactive
94	Jon25Biii	DRSC03115	inactive
95	Oxp	DRSC06712	inactive
96	TwdlE	DRSC02392	inactive
97	AP-1sigma	DRSC15899	inactive
98	CG4325	DRSC18516	inactive
99	CG13946	DRSC00364	inactive
100	EDTP	DRSC07409	inactive
101	Nf1	DRSC16758	inactive
102	CG9300	DRSC11064	inactive
103	PK1-R	DRSC16577	inactive
104	CG30095	DRSC07175	inactive
105	Cep89	DRSC07110	inactive
106	CG13198	DRSC06323	inactive
107	CG41099	DRSC21049	inactive
108	CG41099	DRSC21051	inactive
109	wun	DRSC07719	inactive
110	Stacl + CG8179 (retired record)	DRSC07091	inactive
111	Cpr65Aw	DRSC08794	inactive
112	Srpk79D	DRSC11668	inactive
113	Srpk79D	DRSC11856	inactive
114	CG11755	DRSC14374	inactive
115	Gmppa	DRSC07108	inactive
116	CG3287 (retired record)	DRSC04991	inactive
117	Ire1	DRSC15606	inactive
118	Rpp14b	DRSC15063	inactive
119	I-t	DRSC16713	inactive
120	l(1)G0320	DRSC18255	inactive
121	rdgC	DRSC11387	inactive
122	Sirup	DRSC03031	inactive
123	CG4622	DRSC04479	inactive
124	CG43658	DRSC20111	inactive
125	CG13078	DRSC02182	inactive
126	atms	DRSC12310	inactive
127	foxo	DRSC13017	inactive
128	foxo	DRSC15463	active
129	CalpA	DRSC07352	inactive
130	uex	DRSC20784	inactive
131	uex	DRSC20786	inactive
132	fuss	DRSC17200	inactive
133	fuss	DRSC21452	inactive
134	CG11334	DRSC14066	inactive
135	CG11334	DRSC14302	inactive
136	CG13398	DRSC02268	inactive
137	CG11679	DRSC19415	inactive
138	CG15625	DRSC00460	inactive
139	CG6664	DRSC10690	inactive
140	Acsx1L	DRSC16014	inactive
141	Ehbp1	DRSC06561	inactive
142	CG17821	DRSC06696	inactive
143	hook	DRSC03545	inactive
144	TTLL6B	DRSC15932	inactive
145	CG7772	DRSC20056	inactive
146	CG7091	DRSC12944	inactive
147	CG7091	DRSC16197	inactive
148	CG6294 + CG6299	DRSC19980	inactive
149	Dop1R2	DRSC13958	inactive
150	Dop1R2	DRSC15379	inactive
151	Arl8	DRSC16334	inactive
152	CG17104	DRSC02573	inactive
153	amx	DRSC18736	inactive
154	Prp3	DRSC10912	inactive
155	CG8067	DRSC07065	inactive
156	CG32773 (retired record)	DRSC17330	inactive
157	Cap-H2	DRSC14908	inactive
